Results reported in the supplement of paper PMC6411743.
± gives the standard deviation of the averaged measurements. The list shows a part of the results.

Amino acid sequences for entries named in this document (tags omitted). A change or cut given only in a name is not applied to a line headed by its entry.
UniProt Q8TED0: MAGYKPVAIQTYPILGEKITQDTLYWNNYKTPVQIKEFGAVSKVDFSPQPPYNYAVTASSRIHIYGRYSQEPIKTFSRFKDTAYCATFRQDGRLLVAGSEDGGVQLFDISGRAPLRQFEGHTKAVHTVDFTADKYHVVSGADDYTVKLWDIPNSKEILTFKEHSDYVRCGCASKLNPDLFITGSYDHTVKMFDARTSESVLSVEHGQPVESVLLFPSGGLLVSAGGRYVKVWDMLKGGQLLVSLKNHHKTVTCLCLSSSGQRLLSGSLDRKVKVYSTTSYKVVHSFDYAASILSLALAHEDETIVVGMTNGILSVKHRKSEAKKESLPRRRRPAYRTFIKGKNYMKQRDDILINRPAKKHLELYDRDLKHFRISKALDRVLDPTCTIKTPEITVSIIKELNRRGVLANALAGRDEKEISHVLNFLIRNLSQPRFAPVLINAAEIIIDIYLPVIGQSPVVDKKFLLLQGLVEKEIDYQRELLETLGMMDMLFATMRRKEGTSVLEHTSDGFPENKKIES
UniProt Q8WU39: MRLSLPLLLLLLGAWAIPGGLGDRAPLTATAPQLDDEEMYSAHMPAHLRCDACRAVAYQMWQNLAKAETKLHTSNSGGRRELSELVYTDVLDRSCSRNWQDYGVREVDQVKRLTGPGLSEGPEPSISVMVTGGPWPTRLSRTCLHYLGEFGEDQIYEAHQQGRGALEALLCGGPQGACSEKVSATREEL
UniProt Q8IYS1: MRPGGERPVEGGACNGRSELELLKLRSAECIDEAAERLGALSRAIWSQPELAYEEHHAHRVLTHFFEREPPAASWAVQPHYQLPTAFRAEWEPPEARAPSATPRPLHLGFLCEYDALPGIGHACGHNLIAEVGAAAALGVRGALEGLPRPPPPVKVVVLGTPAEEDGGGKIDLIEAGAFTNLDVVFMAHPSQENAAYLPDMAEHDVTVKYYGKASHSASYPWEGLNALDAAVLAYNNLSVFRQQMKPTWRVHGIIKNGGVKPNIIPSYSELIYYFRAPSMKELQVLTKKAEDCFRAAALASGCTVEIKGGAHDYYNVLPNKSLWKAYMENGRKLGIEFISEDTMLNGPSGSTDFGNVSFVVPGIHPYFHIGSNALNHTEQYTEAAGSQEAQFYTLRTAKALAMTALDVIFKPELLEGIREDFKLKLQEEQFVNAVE
UniProt Q8IWF6: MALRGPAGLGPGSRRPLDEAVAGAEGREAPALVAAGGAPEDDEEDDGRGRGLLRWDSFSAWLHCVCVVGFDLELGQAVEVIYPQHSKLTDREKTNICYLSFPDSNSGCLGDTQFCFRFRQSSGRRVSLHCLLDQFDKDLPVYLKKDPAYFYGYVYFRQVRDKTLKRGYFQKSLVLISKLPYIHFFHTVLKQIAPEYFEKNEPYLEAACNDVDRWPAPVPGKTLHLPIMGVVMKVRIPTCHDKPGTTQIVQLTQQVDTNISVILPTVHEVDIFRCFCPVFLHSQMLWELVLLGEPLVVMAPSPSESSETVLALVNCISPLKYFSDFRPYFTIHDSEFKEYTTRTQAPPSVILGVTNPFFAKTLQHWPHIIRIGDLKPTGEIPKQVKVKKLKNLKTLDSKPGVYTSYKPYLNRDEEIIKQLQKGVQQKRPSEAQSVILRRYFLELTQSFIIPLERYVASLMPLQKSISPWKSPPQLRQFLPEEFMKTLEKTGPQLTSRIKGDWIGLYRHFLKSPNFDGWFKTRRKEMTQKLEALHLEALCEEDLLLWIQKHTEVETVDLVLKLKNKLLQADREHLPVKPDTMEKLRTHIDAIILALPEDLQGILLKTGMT
UniProt Q8IU85: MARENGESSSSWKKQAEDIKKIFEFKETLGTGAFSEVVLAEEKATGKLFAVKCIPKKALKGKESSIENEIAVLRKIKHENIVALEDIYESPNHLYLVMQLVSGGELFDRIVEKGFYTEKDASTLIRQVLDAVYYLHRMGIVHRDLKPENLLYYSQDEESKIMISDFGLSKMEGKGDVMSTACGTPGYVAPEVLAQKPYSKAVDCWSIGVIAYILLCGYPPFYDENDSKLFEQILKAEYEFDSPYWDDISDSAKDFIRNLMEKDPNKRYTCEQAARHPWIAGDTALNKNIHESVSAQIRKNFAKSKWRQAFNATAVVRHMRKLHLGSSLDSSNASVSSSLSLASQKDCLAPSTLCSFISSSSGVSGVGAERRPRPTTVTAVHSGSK
UniProt Q8TBE9: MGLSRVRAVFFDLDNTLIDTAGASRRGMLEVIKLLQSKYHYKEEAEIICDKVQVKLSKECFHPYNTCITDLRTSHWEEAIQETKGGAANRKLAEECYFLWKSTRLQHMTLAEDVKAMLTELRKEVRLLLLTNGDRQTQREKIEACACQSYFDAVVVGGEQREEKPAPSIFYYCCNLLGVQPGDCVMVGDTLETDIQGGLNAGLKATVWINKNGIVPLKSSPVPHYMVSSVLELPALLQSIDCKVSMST
UniProt Q8NFD5, whole entry: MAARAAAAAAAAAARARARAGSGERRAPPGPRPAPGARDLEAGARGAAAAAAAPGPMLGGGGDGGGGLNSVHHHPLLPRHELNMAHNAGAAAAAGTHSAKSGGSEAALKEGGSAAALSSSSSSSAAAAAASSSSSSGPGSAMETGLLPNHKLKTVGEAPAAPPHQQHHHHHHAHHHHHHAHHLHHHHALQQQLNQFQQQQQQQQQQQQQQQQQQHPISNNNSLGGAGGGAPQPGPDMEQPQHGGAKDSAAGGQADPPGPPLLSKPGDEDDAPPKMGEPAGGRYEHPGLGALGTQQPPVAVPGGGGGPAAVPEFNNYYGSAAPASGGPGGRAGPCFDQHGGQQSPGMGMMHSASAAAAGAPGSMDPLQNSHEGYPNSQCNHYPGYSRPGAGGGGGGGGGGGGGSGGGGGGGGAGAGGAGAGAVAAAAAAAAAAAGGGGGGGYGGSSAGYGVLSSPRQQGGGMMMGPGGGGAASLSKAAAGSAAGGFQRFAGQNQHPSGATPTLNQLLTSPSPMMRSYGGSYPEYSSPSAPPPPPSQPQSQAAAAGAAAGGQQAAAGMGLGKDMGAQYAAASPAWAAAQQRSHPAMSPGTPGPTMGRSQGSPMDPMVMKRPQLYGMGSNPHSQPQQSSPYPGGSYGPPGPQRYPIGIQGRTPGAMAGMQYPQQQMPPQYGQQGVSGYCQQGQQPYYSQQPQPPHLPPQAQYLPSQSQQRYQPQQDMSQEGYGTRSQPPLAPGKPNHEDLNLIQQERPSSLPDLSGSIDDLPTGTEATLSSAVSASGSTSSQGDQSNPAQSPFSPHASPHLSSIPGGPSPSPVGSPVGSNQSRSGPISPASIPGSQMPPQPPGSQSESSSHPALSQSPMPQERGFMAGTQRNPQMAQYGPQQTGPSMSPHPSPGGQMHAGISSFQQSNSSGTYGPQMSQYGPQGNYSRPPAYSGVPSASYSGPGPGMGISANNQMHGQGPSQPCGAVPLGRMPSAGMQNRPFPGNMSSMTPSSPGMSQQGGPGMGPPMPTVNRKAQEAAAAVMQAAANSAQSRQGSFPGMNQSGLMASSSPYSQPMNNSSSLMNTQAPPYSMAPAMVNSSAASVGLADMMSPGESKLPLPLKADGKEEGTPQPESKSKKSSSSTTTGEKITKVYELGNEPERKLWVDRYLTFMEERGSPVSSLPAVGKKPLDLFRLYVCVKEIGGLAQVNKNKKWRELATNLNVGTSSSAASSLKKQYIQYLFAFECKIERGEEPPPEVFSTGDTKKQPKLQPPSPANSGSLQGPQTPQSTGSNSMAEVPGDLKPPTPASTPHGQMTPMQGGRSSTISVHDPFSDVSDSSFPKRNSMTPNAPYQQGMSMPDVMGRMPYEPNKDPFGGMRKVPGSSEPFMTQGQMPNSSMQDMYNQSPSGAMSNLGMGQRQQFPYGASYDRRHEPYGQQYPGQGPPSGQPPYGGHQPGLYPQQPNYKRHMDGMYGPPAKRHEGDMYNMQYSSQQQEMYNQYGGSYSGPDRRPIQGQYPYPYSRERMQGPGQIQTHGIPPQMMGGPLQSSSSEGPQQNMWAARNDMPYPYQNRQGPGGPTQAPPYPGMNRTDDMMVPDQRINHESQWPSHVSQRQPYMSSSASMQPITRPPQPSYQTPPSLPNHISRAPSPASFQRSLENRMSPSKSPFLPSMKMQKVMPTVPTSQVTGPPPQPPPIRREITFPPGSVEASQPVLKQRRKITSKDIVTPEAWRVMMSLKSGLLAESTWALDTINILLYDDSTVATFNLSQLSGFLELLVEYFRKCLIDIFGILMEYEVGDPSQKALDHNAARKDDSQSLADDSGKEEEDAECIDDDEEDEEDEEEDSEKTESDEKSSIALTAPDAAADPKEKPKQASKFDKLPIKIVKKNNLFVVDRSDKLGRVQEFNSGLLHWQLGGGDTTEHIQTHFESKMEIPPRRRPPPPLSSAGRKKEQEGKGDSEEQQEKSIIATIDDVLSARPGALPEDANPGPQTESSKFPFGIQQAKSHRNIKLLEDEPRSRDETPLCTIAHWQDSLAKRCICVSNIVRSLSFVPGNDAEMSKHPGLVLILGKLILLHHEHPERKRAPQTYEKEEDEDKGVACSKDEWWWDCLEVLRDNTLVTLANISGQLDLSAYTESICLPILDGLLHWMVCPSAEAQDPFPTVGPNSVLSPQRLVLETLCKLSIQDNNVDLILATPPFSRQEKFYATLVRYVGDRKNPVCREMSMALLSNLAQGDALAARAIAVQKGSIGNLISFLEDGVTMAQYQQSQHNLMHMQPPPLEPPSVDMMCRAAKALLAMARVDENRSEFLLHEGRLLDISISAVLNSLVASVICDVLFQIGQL
UniProt Q8IV48: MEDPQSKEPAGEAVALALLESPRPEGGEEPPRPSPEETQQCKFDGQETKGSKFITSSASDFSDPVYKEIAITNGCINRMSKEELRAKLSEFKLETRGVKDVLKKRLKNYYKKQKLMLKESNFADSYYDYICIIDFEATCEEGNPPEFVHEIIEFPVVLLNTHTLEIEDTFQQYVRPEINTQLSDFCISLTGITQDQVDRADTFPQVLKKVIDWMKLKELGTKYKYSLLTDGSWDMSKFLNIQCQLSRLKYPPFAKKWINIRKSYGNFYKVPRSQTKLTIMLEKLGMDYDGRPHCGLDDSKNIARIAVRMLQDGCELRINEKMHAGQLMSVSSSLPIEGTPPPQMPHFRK
UniProt Q8N668, whole entry: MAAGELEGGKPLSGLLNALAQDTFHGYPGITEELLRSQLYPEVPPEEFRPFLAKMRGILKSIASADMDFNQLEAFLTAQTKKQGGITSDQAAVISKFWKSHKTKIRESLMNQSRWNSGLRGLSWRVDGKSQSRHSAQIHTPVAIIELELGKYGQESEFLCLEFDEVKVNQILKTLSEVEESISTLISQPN
UniProt Q8TB61: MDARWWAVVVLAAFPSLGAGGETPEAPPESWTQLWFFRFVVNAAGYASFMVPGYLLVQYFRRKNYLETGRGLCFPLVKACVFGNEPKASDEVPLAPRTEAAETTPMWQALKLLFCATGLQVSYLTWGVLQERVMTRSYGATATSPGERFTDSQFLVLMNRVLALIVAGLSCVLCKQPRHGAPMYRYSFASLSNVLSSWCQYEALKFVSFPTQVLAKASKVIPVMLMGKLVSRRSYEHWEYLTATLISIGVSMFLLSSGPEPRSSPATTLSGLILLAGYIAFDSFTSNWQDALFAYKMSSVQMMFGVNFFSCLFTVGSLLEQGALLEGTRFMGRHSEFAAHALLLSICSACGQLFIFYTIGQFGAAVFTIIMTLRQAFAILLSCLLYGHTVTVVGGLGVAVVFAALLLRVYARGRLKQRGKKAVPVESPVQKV
UniProt Q8IWD4: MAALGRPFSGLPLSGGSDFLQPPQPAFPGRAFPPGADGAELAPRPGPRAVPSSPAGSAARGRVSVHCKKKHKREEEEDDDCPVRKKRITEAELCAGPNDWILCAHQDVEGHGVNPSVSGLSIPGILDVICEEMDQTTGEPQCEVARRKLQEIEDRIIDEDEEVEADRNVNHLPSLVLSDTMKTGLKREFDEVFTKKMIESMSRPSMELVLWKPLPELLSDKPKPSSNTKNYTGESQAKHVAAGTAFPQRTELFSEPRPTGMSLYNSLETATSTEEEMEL
UniProt Q8IZ07: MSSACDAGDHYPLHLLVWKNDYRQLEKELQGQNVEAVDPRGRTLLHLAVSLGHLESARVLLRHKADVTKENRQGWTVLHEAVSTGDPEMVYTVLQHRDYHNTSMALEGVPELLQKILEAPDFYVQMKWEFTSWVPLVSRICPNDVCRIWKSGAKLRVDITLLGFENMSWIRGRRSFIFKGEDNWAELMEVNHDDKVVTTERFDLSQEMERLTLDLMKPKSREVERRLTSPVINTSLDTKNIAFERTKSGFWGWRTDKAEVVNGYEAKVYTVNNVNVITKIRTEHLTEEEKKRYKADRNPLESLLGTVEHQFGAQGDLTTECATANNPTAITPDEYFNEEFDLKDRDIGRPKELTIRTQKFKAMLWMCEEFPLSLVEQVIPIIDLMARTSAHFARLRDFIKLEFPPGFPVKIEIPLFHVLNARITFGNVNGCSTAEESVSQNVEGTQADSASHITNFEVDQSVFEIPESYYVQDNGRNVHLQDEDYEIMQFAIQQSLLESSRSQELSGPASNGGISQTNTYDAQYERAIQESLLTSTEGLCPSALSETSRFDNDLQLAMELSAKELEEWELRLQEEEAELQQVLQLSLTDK

Compound: Nc1nc2c(ncn2[C@@H]2O[C@H](COP(=O)(O)OP(=O)(O)OP(=O)(O)O)[C@@H](O)[C@H]2O)c(=O)[nH]1 [guanosine triphosphate]
Assay: NP40-soluble protein abundance relative to vehicle (solubility fold change) (ratio); higher = more soluble protein in presence of GTP
Method in brief: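 Jurkat crude lysate prepared with a Dounce homogeniser was treated at eight concentrations spanning 0.1 to 10 mM, 10 min at room temperature then 3 min at 37 °C. Solubilisation with 0.8% NP40 and benzonase and ultracentrifugation preceded TMT labelling of the supernatant for LC-MS/MS. Fold change against the detergent-processed vehicle was determined per replicate from vsn-normalised intensities, across three independent experiments.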

Row | Target | NP40-soluble protein abundance (concentration: 0.1mM) | NP40-soluble protein abundance (concentration: 0.5mM) | NP40-soluble protein abundance (concentration: 1mM) | NP40-soluble protein abundance (concentration: 2mM) | NP40-soluble protein abundance (concentration: 4mM) | NP40-soluble protein abundance (concentration: 6mM) | NP40-soluble protein abundance (concentration: 8mM) | NP40-soluble protein abundance (concentration: 10mM)
1 | UniProt Q8TED0 and related entries | 1.17 ± 0.14 | 1.14 ± 0.2 | 1.13 ± 0.062 | 1.23 ± 0.12 | 1.42 ± 0.22 | 1.51 ± 0.2 | 1.7 ± 0.19 | 1.69 ± 0.32
2 | MZB1 (UniProt Q8WU39) | 0.874 ± 0.068 | 0.886 ± 0.087 | 0.937 ± 0.064 | 0.903 ± 0.078 | 0.891 ± 0.077 | 0.892 ± 0.097 | 0.866 ± 0.13 | 0.948 ± 0.065
3 | UniProt Q8TF68 and related entries | 0.963 ± 0.05 | 0.994 ± 0.025 | 0.949 ± 0.1 | 0.94 ± 0.056 | 0.911 ± 0.13 | 0.866 ± 0.099 | 0.913 ± 0.13 | 0.938 ± 0.08
4 | PM20D2 (UniProt Q8IYS1) | 0.977 ± 0.071 | 0.969 ± 0.062 | 0.91 ± 0.08 | 0.904 ± 0.052 | 0.908 ± 0.066 | 0.89 ± 0.053 | 0.866 ± 0.085 | 0.843 ± 0.095
5 | UniProt Q8IWF6 | 1.04 ± 0.04 | 0.968 ± 0.062 | 0.992 ± 0.056 | 0.934 ± 0.022 | 0.984 ± 0.08 | 0.94 ± 0.024 | 0.943 ± 0.043 | 0.896 ± 0.083
6 | UniProt Q8IU85 and related entries | 1.08 ± 0.012 | 1.06 ± 0.09 | 1.02 ± 0.054 | 0.989 ± 0.017 | 0.932 ± 0.036 | 0.921 ± 0.089 | 0.897 ± 0.046 | 0.842 ± 0.026
7 | NANP (UniProt Q8TBE9) | 1.07 ± 0.15 | 0.981 ± 0.11 | 0.954 ± 0.14 | 0.982 ± 0.16 | 0.904 ± 0.12 | 0.877 ± 0.14 | 0.891 ± 0.2 | 0.861 ± 0.15
8 | UniProt Q8NCE2 and related entries | 1.07 ± 0.086 | 1.06 ± 0.09 | 0.995 ± 0.1 | 1.07 ± 0.095 | 0.985 ± 0.077 | 0.936 ± 0.086 | 0.942 ± 0.036 | 0.915 ± 0.045
9 | UniProt Q8N8A2 and related entries | 1.12 ± 0.033 | 1.09 ± 0.11 | 1.05 ± 0.1 | 1.18 ± 0.083 | 1.1 ± 0.12 | 1.1 ± 0.13 | 1.1 ± 0.16 | 1.04 ± 0.12
10 | UniProt Q8NFI3 and related entries | 0.997 ± 0.05 | 1.07 ± 0.041 | 0.981 ± 0.063 | 0.993 ± 0.15 | 0.985 ± 0.11 | 0.944 ± 0.087 | 0.872 ± 0.037 | 0.938 ± 0.014
11 | UniProt Q86YP4 and related entries | 0.982 ± 0.041 | 1.01 ± 0.043 | 1.09 ± 0.023 | 1.11 ± 0.064 | 1.15 ± 0.1 | 1.16 ± 0.075 | 1.23 ± 0.13 | 1.24 ± 0.17
12 | UniProt Q8ND04 and related entries | 1.11 ± 0.083 | 1.15 ± 0.04 | 1.12 ± 0.062 | 1.14 ± 0.051 | 1.09 ± 0.055 | 1.09 ± 0.099 | 1.1 ± 0.07 | 1.03 ± 0.068
13 | UniProt Q86Y37 and related entries | 0.963 ± 0.063 | 0.923 ± 0.074 | 0.9527 ± 0.0029 | 0.9274 ± 0.0067 | 0.907 ± 0.091 | 0.905 ± 0.048 | 0.87 ± 0.057 | 0.889 ± 0.054
14 | UniProt Q8NFD5 and related entries | 1.01 ± 0.03 | 1.06 ± 0.072 | 1.07 ± 0.058 | 1.13 ± 0.1 | 1.12 ± 0.13 | 1.12 ± 0.14 | 1.15 ± 0.18 | 1.15 ± 0.15
15 | TXNDC5 (UniProt Q8NBS9) | 0.938 ± 0.1 | 0.963 ± 0.096 | 0.949 ± 0.13 | 0.924 ± 0.12 | 0.902 ± 0.12 | 0.928 ± 0.11 | 0.922 ± 0.1 | 0.911 ± 0.078
16 | ERI1 (UniProt Q8IV48) | 0.959 ± 0.1 | 0.989 ± 0.11 | 0.963 ± 0.068 | 1.03 ± 0.031 | 1.06 ± 0.054 | 1.12 ± 0.071 | 1.08 ± 0.093 | 1.16 ± 0.064
17 | WDFY1 (UniProt Q8IWB7) | 1.24 ± 0.16 | 1.21 ± 0.22 | 1.13 ± 0.15 | 1.1 ± 0.17 | 1.1 ± 0.15 | 1.05 ± 0.12 | 1.17 ± 0.3 | 1.1 ± 0.22
18 | UniProt Q8IWV8 and related entries | 1.1 ± 0.14 | 1.08 ± 0.12 | 1.06 ± 0.12 | 1.04 ± 0.11 | 1.02 ± 0.076 | 1.04 ± 0.097 | 1.02 ± 0.11 | 0.978 ± 0.053
19 | RNF214 (UniProt Q8ND24) | 0.971 ± 0.085 | 0.97 ± 0.093 | 0.971 ± 0.093 | 0.931 ± 0.088 | 0.916 ± 0.093 | 0.911 ± 0.071 | 0.942 ± 0.079 | 0.912 ± 0.083
20 | COMMD1 (UniProt Q8N668) | 0.891 ± 0.062 | 0.865 ± 0.077 | 0.99 ± 0.018 | 0.905 ± 0.03 | 0.903 ± 0.04 | 0.96 ± 0.026 | 0.925 ± 0.075 | 0.934 ± 0.012
21 | THNSL1 (UniProt Q8IYQ7) | 1.05 ± 0.017 | 1.06 ± 0.053 | 0.965 ± 0.043 | 1 ± 0.039 | 0.946 ± 0.05 | 0.9486 ± 0.0082 | 0.925 ± 0.028 | 0.923 ± 0.084
22 | UniProt Q8TB61 and related entries | 0.954 ± 0.15 | 0.957 ± 0.064 | 0.953 ± 0.061 | 0.929 ± 0.053 | 0.942 ± 0.095 | 0.909 ± 0.042 | 0.923 ± 0.13 | 0.992 ± 0.09
23 | UniProt Q8N3X1 and related entries | 1.05 ± 0.043 | 1.01 ± 0.076 | 1.09 ± 0.022 | 1.27 ± 0.017 | 1.39 ± 0.024 | 1.64 ± 0.031 | 1.77 ± 0.15 | 2.04 ± 0.24
24 | NUP210 (UniProt Q8TEM1) | 0.983 ± 0.023 | 0.9845 ± 0.0064 | 0.957 ± 0.021 | 0.969 ± 0.019 | 0.9726 ± 0.009 | 0.977 ± 0.019 | 0.976 ± 0.013 | 1.006 ± 0.0064
25 | UniProt Q8IZA0 and related entries | 0.987 ± 0.051 | 0.917 ± 0.087 | 1.05 ± 0.059 | 0.976 ± 0.08 | 0.991 ± 0.11 | 1.02 ± 0.096 | 1.02 ± 0.047 | 0.948 ± 0.05
26 | SMAP2 (UniProt Q8WU79) | 0.953 ± 0.041 | 0.93 ± 0.059 | 0.952 ± 0.065 | 0.88 ± 0.086 | 0.868 ± 0.069 | 0.875 ± 0.071 | 0.905 ± 0.072 | 0.879 ± 0.067
27 | TTC39C (UniProt Q8N584) | 0.959 ± 0.043 | 1.01 ± 0.074 | 0.969 ± 0.02 | 0.925 ± 0.054 | 0.888 ± 0.047 | 0.927 ± 0.032 | 0.888 ± 0.022 | 0.886 ± 0.038
28 | UniProt Q8IWD4 and related entries | 0.937 ± 0.046 | 0.954 ± 0.064 | 0.981 ± 0.018 | 0.992 ± 0.084 | 0.927 ± 0.022 | 0.935 ± 0.045 | 0.971 ± 0.017 | 1.01 ± 0.072
29 | ANKRD13A (UniProt Q8IZ07) | 1.07 ± 0.02 | 1.06 ± 0.01 | 0.968 ± 0.077 | 0.995 ± 0.013 | 0.9383 ± 0.0085 | 0.9728 ± 0.0033 | 0.969 ± 0.044 | 0.925 ± 0.014
30 | FTSJ3 (UniProt Q8IY81) | 0.979 ± 0.012 | 0.97 ± 0.039 | 1.05 ± 0.02 | 1.05 ± 0.045 | 1.08 ± 0.039 | 1.12 ± 0.052 | 1.16 ± 0.024 | 1.18 ± 0.029

Copied from the list.
Value for UniProt Q8IZA0 and related entries under NP40-soluble protein abundance (concentration: 0.1mM): 0.987 ± 0.051
Value for TXNDC5 (UniProt Q8NBS9) under NP40-soluble protein abundance (concentration: 0.1mM): 0.938 ± 0.1
